Data taken from publication PMC4154660.
Results are given in words; binding and its absence hold for the method and conditions named. In cells and extracts the contact can be indirect. These calls come from enrichment with a bait or labelling near it, and not all partners need be listed. Values belong to the binder of their own block, whether it stands above or below them.

Sequences of proteins named here, by UniProt entry; tags and fusion partners are left off. A change or cut given only in a name is not applied to a line headed by its entry.
UniProt F7VLP8: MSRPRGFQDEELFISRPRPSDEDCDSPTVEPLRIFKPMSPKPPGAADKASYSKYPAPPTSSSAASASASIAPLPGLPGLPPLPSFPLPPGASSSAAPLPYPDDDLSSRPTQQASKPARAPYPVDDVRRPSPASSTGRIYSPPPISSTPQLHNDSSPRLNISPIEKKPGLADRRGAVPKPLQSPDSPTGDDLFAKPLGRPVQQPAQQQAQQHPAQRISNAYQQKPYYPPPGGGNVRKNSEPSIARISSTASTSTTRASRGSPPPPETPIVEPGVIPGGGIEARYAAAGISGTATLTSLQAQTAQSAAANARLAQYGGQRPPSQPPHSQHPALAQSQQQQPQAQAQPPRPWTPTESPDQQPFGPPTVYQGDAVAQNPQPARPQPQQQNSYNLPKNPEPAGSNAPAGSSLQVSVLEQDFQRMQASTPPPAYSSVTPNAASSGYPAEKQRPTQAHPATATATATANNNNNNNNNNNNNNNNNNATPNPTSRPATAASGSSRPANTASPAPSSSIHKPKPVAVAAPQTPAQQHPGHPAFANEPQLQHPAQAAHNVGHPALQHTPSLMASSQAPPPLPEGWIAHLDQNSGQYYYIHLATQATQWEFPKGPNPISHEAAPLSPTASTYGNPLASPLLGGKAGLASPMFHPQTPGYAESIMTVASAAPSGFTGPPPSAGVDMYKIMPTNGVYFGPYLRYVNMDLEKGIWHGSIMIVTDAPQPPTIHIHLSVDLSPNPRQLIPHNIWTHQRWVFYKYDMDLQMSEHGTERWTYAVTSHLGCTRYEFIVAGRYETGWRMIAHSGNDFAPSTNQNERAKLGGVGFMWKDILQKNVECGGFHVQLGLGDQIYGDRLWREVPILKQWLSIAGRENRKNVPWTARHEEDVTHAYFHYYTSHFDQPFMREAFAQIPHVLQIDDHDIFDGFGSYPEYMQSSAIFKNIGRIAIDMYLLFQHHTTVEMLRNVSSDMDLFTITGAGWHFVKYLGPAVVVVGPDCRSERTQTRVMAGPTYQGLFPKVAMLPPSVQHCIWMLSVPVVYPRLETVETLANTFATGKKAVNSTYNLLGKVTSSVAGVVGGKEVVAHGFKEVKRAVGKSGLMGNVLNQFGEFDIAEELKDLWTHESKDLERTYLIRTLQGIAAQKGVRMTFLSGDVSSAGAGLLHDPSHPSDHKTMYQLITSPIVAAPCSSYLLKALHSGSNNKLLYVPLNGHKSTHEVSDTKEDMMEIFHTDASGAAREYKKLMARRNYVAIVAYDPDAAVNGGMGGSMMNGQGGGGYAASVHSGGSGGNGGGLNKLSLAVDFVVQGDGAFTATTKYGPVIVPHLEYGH

Target: PRO40-FLAG (Sordaria macrospora) (UniProt F7VLP8)
Assay: affinity purification with mass spectrometry; FLAG-AP with MudPIT of PRO40-FLAG from strain T184.2NS11 (Δpro40::pro40-3xFLAG) on anti-FLAG M2 gel, 250 mM NaCl extraction, 150 mM NaCl washes, 3xFLAG peptide elution; wildtype extract as control

B1: COP9-2 (protein, UniProt F7VQD5 1-492)
chain: MSDDDFMQDSEEEYDFEYEDEEEEDNGDVDIENKYYNAKQTKTSDPEEALQEFLSIPPLEPEKGDWGFKALKQAIKMEFKLERYQEATDHYEELLTYVKSAVTRNYSEKSIDNMLNYIEKGYDDPKAVQCIEKFYSLTLQCFQSTNNERLWLKTNIKLARLLLDRKDYHAVARKLRELHNACRKPDGTDDPSKGTYSLEIYALEIQMYSETRNNNQLKVLYQKALKVRSAVPHPKIQGVIRECGGKMHMSEENWKEAQSDFFEAFRNYDEAGDLRRIQVLKYLLLTTMLMKSDINPFDSQEMKPYRNDPRISAMTELVDAYQRDDIYRYEDVLQKNTDLLADPFIAENIDEVTRNMRTKGVVKLIAPYTRMRVSWLAEKLRITEPEVMDILSFLIVDGRVKGRIDEHKGMLELESREDADHIQGITVLSEAVGNLFNAVFKSTDGFQAGQGDFMNSMADQIGGGDMGSLDDTMRSMGSGKRGRRVGLTQRAY
- binding: binds

B3: Eukaryotic translation initiation factor 3 (SMAC_00095) (protein, UniProt F7VK52 1-474)
chain: MSAFQQAQAPARAIDPDSDVEEEALVNDYKEQVQYEEDDAESTQLSLAAQTDDIQSRLAAAAQPLDYSAGLEVKFSSYDSYCSLFHFILNSEGPVDLEPPSYYWAWDVIDEFIYQFNSFSSYRARIARQGNNEEEITMLRENPNTWGCYSVLNVLYSLIQKSQITEQLAAMKRNEDPAAVAGEYGSKNLYKMLGYFSIIGLLRVHTLLGDFSLALKTLDDIELNKKAMFARVMAAHFTTYYYVGFSYMMMRRYADAIRMFSHILVYVSRTKNFQKNAQYDSITKKNDQMYALIAICVAFQPTRLDDTIHTALREKYGDQLLKLQRGGPEALPIYEELFRTACPKFISPVPPNFDEPEANIDPIEHHLSVFMDEVKTNMFNPTIKSYLRLYTTMDLKKLAGFLEVKPEELRGWLMVNKQRTKQLRWTDGGLLEGELVNVSDLDYALQGDLIHISEAKVGRKLVDWYLRNLSRTYA
- binding: binds

B4: Short chain dehydrogenase (SMAC_01191) (protein, UniProt F7VMI7 1-272)
chain: MSVYAVTGVSKGIGFEFLRQLSEDKDNLVIGLVRNKAATEKKVAAELGDRPNVHILHGDLTNYASLKEAAAETAKIVGDRGVDYLVANAGIVPEFDAYGPVSALADKIQEVDAGAAETFQTNVTGQLHLFNLFVPLIKKGKAKKVIAISSGVGDVDLTNQCEIDVGPIYAASKAALNIIVAKFNAEYKKEGILFLSISPGLVEVGRYANATPEQVNGLMGFVGKLASYAPHFKGPITPEESVKAVRSVWEKASIEEGHGGAFISHLGNKQWV
- binding: binds

B5: Eukaryotic translation initiation factor (SMAC_00367) (protein, UniProt F7VKX3 1-397)
chain: MATDKGLEDIPEGQIESNYDETVDSFDEMNLKPELLRGIYAYGFERPSAIQQRAIMPVIKGHDVIAQAQSGTGKTATFSISVLQKIDPTLKACQALILAPTRELAQQIQKVVVAIGDFMNIECHACIGGTSVRDDMKALQDGPQVVVGTPGRVHDMIQRRFLKTDSMKMFVLDEADEMLSRGFTEQIYDIFQLLPQSTQVVLLSATMPQDVLEVTTKFMREPVRILVKKDELTLEGIKQFYIAVEKEEWKLDTLSDLYETVTITQAVIFCNTRRKVDWLTDKLTARDFTVSAMHGDMDQAQRDLIMKEFRSGSSRVLIATDLLARGIDVQQVSLVINYDLPANRENYIHRIGRGGRFGRKGVAINFVTADDVRMMREIEQFYSTQIEEMPMNVADLI
- binding: binds

B6: Pci domain protein (SMAC_00633) (protein, UniProt F7VLP0 1-434)
chain: MATPQLIFVDGTFAELAQEMADFIQVGEQVQPLLEQDKREDALDVIVKASHILNGAPEKDFTPAYNLLIHLVLQSEEPKKYLPTLCGNLLKPITGSPTHGFTLASNALTTIFNLLDKSNPLRFNVFMQIVRFIRQNSQFDLLKPRLKNVEGWLQEWKSDSDSQRKLYVEVSDAANDGGDQEESYFYLLKALATFDRDNQEEVTSDEAQKLSLRALRMAISSPTRFDFNDLRSLPSVQALNDSHPVYSQLLDIFTEQDLEDYNDFRDEHQGWIENEKLDHDKLQRKMRLLTFASLAASTPNREIPYASIAKALQIPDADVEMWTIDVIRSKLVEGRLSQKQKVFLVHRTTYRVFGEKQWRELGTRVDQFKTVVDRLVGVVRKAQSDVEAQREREQQELERKLANAGLDEPQQRGGNRGGRTGGQRQTRPRTDDDD
- binding: binds

B7: Xpg i-region protein (SMAC_02537) (protein, UniProt F7VWR6 1-745)
chain: MPVNFEDPWFKAQEVSYNVSELQDCAVAVDASYFLRQLLEQAENYNEPLLTALGGLTGIQARIQVELDNWLRNRTTPFFIFDGQPMVGQDEVTTKQGREIQKQTGVAWKLYSEGQAEAAVAAFGECASLYNIQALYPMLQDELRLRKLHFLVAPFNAAAQIAYLDMIDSDQCGGIMGPLELMLYPIQDCVIRSIEWTSNTCAAISKKNVMKVLNVSEPHFIDAFLMTGTPFLPPFPPLTDPTLVKSQPYNIVDAINMLRTADKSVTMVSTTFHDLIKNQDPTWLDKYRKAWMAVKHFVYIAESGVVKVHDADHLTNDNHEYLGLQIPWEMFHYLNAGLIGPRLLSWITHSQVYVLPTLDGSATEEYKKLVSSQLVPLEETALSLVLARLHRGIVYKDIKAKVWYDDNYSGTVLDHRHEARTKTNYGVQMATWGVIKEADIKQHFPGFEHGSIFSEVHALTKPDFVKLTFAKQENKLRNVESASVIKSICLWRYLHVRGYIDDQHNLTNWGKALDRAMVTLEPAVKKFPTVPYLYESVLVAMEMVRFGLLNGSLKVVEPLSLPMHGDDDDKSSLMLISRCATLLKLRHQANGYTGPLSKNLLTFHSLAGEVRSAERALMEAILASLFLYGQGQRKRDDSWELSHQLPFLFNPDVALGIAVKTYFDETINWKSEKEKTERLATFPDLFVPYSMAFSEDLEIACEFFKAVYAGLQTLDGQGISANDLKAWSKAKEYLSPRTLKDASGN
- binding: binds

B8: PRO4/LEU1 (enzyme, UniProt Q6TWC4 1-368)
chain: MATHNIVVFGGDHCGPEVVVEAIKVLKSIETNSPSAGKFNLQNHLLGGASIDKHHDPLTDEALNAAKAADAVLLGAIGGPEWGTSSTVRPEQGLLKLRKELGTYGNLRPCNFASESLVDSSPLKAEVCRGTDFIVVRELTGGIYFGDRTEDDGSGYACDTEPYSRAEIERIARLAGFLALAKNPPAKVWSLDKANVLATSRLWRKTVTDVISKEFPQLQLEHQLIDSAAMLLVKNPRALNGVVITSNLFGDIISDEASVIPGSIGLLPSASLGGIPDGKGKCNGIYEPIHGSAPDISGKGIVNPVGTILSVAMMLRYSLNLPKEADAVEAAVKAAIDNGTKTKDLGGSATTSDMGNAVVAELEKILKA
- binding: binds

B9: Hsp70 family protein (SMAC_01267) (protein, UniProt F7VQB8 1-701)
chain: MSFSNSRLKGFGFGKRKSTASIQPNPDQQQSPTLPPGAAPQLPQLFQSRPGPAPSVASNSSQQSLPQMNHPGAGPRPPSYSANYPPGPPGPVGRTSPLTNQGPTRTPPSQMVGGPPPINTGAPPVSGYPPPVNMGGGPPPLQGGPPGYAGAQGYPPPPQPTGPVAPYRGNAAAEVEGNSRSKAQLIVGIDFGTTFSGVAFAFATNNEAKEDIITEWPGAGSYTKQKIPTVLYYDQYQKVVGWGPDIADALAPTGYPKPGVQKVEWFKLQLMLSGNTYIDPINLPPLPPGKSEIDVAADYLFKLRQAMRAALQKTLGEVFNREERNIRYYLTVPAIWNDAGKAATRAAAIQAGFLRDENDNRLTLVSEPEAAALFCSKTGLLNLKVHDAVLIVDCGGGTVDLIAYEVEDENPFTVAECTAGSGDSCGSTALNRNFSNILRTKIRKMKLPDGSKTAGRVYAKCIMDFENRIKADFRNNGQKWAVDVGIEAEFPEAGIEEGYMTFTNEEILQCFEPVVNRILELVRNQIIAIQAQNRTLQNILVVGGFGASEYLFQQIKLHVPPQFQSKVVRPMDSVAAIVKGAVTAGITERVITHRVARRHYLMATLQPFKEGYHPEAYRVPSLDGKDRCKFTRQIFVQKGQKVKIGEPVKVSFFRQVAPGATLMYEDILYACDDDVCPEYTKDPSKSLALLFDHGRILTVWK
- binding: binds

The remaining lines, values ahead:

- binding: binds
B2: 60 s ribosomal protein l27e (SMAC_02509) (protein, UniProt F7VPS7 1-135)
chain: MKFLKTSRVCLVTRGRYAGKKVVIIQPVDNGSKTHPYGHAIVAGIERYPSKITRRMSKTRQEKRSKVKPFIKVINYNHLMPTRYTLELEGLKGSVSAETFKEVSQREDAKKTVKKVLEERYTSGKNRWFFTPLRF

- binding: binds
B10: Eukaryotic translation initiation factor 3 subunit f (SMAC_02708) (protein, UniProt F7VX88 1-370)
chain: MAVDQESFVHLARPLAPNVLGFGVSNAPLTVNIQPQAVFSIVDHAVRRDDRDTQATRVIGALVGVRSEDGSEVEVRSTFAIPHTENEDQVEVDVEYQKNMLALTLKASPRETLLGWYTTSHELNSFSALIQNFFASPETGTFPHPAVHLTIGTEAGAPIETKTYISAPVAVSPERAAESCLFIEVPHKLLFTDAERGALGSVAAAADVESRSAPVVSDIENLSQALETVSDLLERVSGFVGDVLDEERDGNHALGQYLMNALSLAPKVSNLAIENDFNNHIQDVLMVSYLANTIRTQIELSQRLATAKLDEGKEAGDKKEGEGAEGGDKKNDGQRGQRGQGGKRGGRGGGAGGRGGREQREPREPRESAE

- binding: binds
B11: protein kinase C (PKC1, endogenous) (enzyme, UniProt F7W233 1-1146)
chain: MNDEDKVHDISKKIEREKALINAAQAMRQQTNNEQVRSKLDTQMREGRRNLEFFEEKLRELQMRRLGHGVDNMSLGASPMSGSHRQSVDDFEGHGAPTPPPKEGGRGHSSHQSQGSGPLMPASGPYPGGPPDSAVPRARPNYTRLDLIKFDTPHLGPRIQLMLSQIQFKLNVEEQYLKGIEKMVQLYQMEGDKKSKLDAAAKRVESKQKIVLLKQALKRYEELHIDIDVDGPDDDSINLPALRKPLSGTLSIRILAVKDVDHAPLGRFARSPETFIAVKAEDIIVARTRPSRNDRWEAEFHTFPVDKTNEIEFTVYDKPSEHPVPIAMLWVRISDIVEELRRKKIEAEMTSAGWVSADRVGSRAPPPQFPMGTQSPQFAAPPTSPGSQEQNIMIPPQAPPPSQVVSQPVDGWFNLEPYGQIHLSFNFMKESRPQGMDRLGRKGAVRQRKEEVHEMYGHKFVQKQFYNIMRCALCGDFLKYSAGMQCEDCKYTCHTKCYTSVVTKCISKSNAETDPDEEKINHRIPHRFIPFSNLTANWCCHCGYMLPIGSKKNSRKCSECALTAHAQCVHLVPDFCGMSMAVANQILEGIRTQKKTHKDKASSMSERTLRPGSKTSFSSGSIAQTSTYSGSTAYTSIASPEATEAAKLMYSQTTPRPAGPDRTSTSSTTASAAAAAAMAPKHSSQPSQAGSIPDFGGNYGGSGSYGHPESREDEYNAQQQQGYGSPQQRKYNPADYANIGAYSSPPQAQHPQQQQQQQSPQQVSPMYQQNPQTPISKPQPVAPSYDNQVVPSASGVPVPTKKPLPSATDPGTGMRIGLDHFNFLAVLGKGNFGKVMLAETKKSRKLYAIKVLKKEFIIENDEVESIRSEKRVFLIANRERHPFLTNLHACFQTETRVYFVMEYISGGDLMLHIQRGMFGTKRAQFYAAEVCLALKYFHENGVIYRDLKLDNILLTLDGHIKIADYGLCKEDMWYGSTTSTFCGTPEFMAPEILLDKKYGRAVDWWAFGVLIYQMLLQQSPFRGEDEDEIYDAILADEPLYPIHMPRDSVSILQKLLTREPDQRLGSGPTDAQEIMSQPFFRNINWDDIYHKRVQPPFLPQIKSATDTSNFDSEFTSVTPVLTPVQSVLSQAMQEEFRGFSYTADFE
